From PubChem BioAssay AID1671190 (National Center for Advancing Translational Sciences (NCATS), 2021)
The campaign covered roughly 580,000 compounds. About 6,100 (1.1%) were called active. The shares of active, inactive and inconclusive entries below differ from those in the screen. Calls come from the whole dose curve; as a rule, active = well fitted inhibition curve with a large enough effect; inconclusive = small, poorly fitted or top-dose-only effect, or another doubt; inactive = no such curve, though single readings can be large or run the other way. Potencies of inconclusive entries are doubtful fits and often do not repeat.
% is set by controls: 0 for no effect and ±100 for the full control effect; potency is the fitted concentration of half-maximal effect.

Sequences of proteins named here, by UniProt entry; tags and fusion partners are left off. A change or cut given only in a name is not applied to a line headed by its entry.
UniProt P18054: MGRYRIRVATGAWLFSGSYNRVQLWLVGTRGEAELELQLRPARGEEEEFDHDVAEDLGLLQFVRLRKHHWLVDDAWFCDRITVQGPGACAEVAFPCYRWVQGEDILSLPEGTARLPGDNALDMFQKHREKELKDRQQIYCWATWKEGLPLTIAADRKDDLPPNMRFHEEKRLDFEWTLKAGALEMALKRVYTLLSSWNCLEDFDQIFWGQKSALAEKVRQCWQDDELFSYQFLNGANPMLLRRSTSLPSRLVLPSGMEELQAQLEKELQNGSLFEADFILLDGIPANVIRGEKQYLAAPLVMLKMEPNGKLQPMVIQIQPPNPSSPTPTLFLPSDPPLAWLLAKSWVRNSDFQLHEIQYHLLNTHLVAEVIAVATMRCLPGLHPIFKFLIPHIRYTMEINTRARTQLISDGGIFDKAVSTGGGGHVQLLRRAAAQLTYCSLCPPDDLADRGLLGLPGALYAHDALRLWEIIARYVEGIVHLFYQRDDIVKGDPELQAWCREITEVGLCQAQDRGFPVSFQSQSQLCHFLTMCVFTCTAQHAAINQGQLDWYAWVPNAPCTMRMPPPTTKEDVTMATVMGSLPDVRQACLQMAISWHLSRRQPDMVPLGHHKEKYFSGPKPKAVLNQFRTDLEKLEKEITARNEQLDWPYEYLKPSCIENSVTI

The compounds below were run against Polyunsaturated fatty acid lipoxygenase ALOX12 (Homo sapiens) (UniProt P18054) (assay: Primary qHTS assay for inhibitors of human arachidonate 12S-lipoxygenase (ALOX12): Round 2). Details: purified 12hLO, xylenol orange hydroperoxide absorbance; activity change, negative = inhibition: at 108 µM (top of the series) unless noted.
Procedure, shortened: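 Hydroperoxide product was detected by ferrous iron/xylenol orange as the 573 to 405 nm absorbance ratio. Arachidonic acid at 40 uM (final) was turned over for 30 min at room temperature by 150 nM human 12hLO, pH 7.0 Hepes buffer, after 15 min compound preincubation.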
`Cc1ccc2nc(NC(=O)C3=NN(c4ccccc4)C(=O)CC3)sc2c1` was tested, and the Potency was inconclusive: 50.1 µM [inhibitor, partial curve, poor fit]. With `COc1ccc(CCC(=O)NNC(=O)Nc2ccc(OC)c(OC)c2)cc1` the “activity change, negative = inhibition” value was inactive: 273%. With `CCc1nc2ccc(C(=O)N(C)Cc3ccco3)cn2c1N(C)CCCc1ccccc1` the “activity change, negative = inhibition” value was inactive: -25.3%. With `COc1ccc2oc(=O)c(-c3nnc(N)s3)cc2c1` the “activity change, negative = inhibition” value was inactive: -14.2%. For `Cc1cc(C)cc(NC(=O)N2CCc3cc(S(=O)(=O)N4CCC(C)CC4)ccc32)c1`, the Potency was inconclusive: 44.7 µM [inhibitor, partial curve, poor fit]. With `Cc1ccc(Nc2ccc(N)cc2S(=O)(=O)O)cc1` the Potency was inconclusive: 35.5 µM [inhibitor, single point]. `COC(=O)NCc1cc2cc(Cl)ccc2[nH]1` was tested, and the Potency was inconclusive: 50.1 µM [inhibitor, partial curve, poor fit]. `CCCC(=O)Nc1nc2nc(-c3ccccc3)cc(=O)n2[nH]1` was tested, and the Potency was inconclusive: 25.1 µM [inhibitor, partial curve, poor fit]. With `Cc1ccc(-n2c(N)cc(=O)nc2SCC(=O)NC2CCCCC2)cc1C` the Potency was inconclusive: 70.8 µM [inhibitor, partial curve, poor fit]. `Cc1ccc(N(C(C)C(=O)Nc2cc(Cl)ccc2Oc2ccccc2)S(C)(=O)=O)cc1` (stereo not given) was tested, and the “activity change, negative = inhibition” value was inactive: -3.56%. With `Clc1ccccc1C1CC(c2ccccc2)=Nc2ccccc2N1` (stereo not given) the “activity change, negative = inhibition” value was inactive: 2.08%. `Cc1cc(C)c2sc(N(CCCN(C)C)C(=O)c3ccc(S(=O)(=O)N(C)Cc4ccccc4)cc3)nc2c1` was tested, and the Potency was inconclusive: 44.7 µM [inhibitor, partial curve, poor fit]. In the case of `O=C1C(=O)N(Cc2cccnc2)C(c2cccc(Br)c2)/C1=C(/O)c1ccc2c(c1)OCO2` (stereo not given), the Potency is reported as inconclusive: 3.16 µM [inhibitor, full curve]. In the case of `O=c1ccc(/C=C/c2ccccc2)nn1Cc1ccccc1`, the “activity change, negative = inhibition” value is reported as inactive: 0%. For `COc1cccc(CNc2nc3cc(-c4ccc(OC)cc4C)sc3c(=O)n2C)c1`, the Potency was inconclusive: 56.2 µM [inhibitor, partial curve, poor fit]. `COc1ccc(N2C(=O)C(CN3CCCCC3)C2c2ccccc2)cc1` (stereo not given) was tested, and the Potency was inconclusive: 39.8 µM [inhibitor, single point]. `CCOC(=O)N1CCN(C(=O)CN(c2ccc(OC)cc2)S(C)(=O)=O)CC1` was tested, and the “activity change, negative = inhibition” value was inactive: -6.8%. In the case of `CCc1cccc2c(C(CC(=O)NCc3ccco3)c3ccc(C)cc3)c[nH]c12` (stereo not given), the Potency is reported as inconclusive: 12.6 µM [inhibitor, full curve, poor fit]. `CCCNC(=O)c1coc(COc2ccc3c(c2)C(c2cccc(C)c2)N(C(=O)C2CC2)CC3)n1` (stereo not given) was tested, and the Potency was inconclusive: 22.4 µM [inhibitor, full curve]. In the case of `Cc1ccc(S(=O)(=O)N(C)C[C@H]2Oc3ccc(NC(=O)C4CCCCC4)cc3C(=O)N([C@H](C)CO)C[C@H]2C)cc1`, the Potency is reported as inconclusive: 7.08 µM [inhibitor, full curve, poor fit]. `O=C(NCc1ccccc1)c1cc(C2CC2)nc2ccccc12` was tested, and the Potency was inconclusive: 35.5 µM [inhibitor, partial curve, poor fit]. `CCOC(=O)c1cnc2ccc(Cl)cc2c1Nc1cc(OC)ccc1OC` was tested, and the Potency was inconclusive: 50.1 µM [inhibitor, partial curve, poor fit]. For `O=C(NC1CCCCC1)C(c1ccncc1)N(CC1CCCO1)C(=O)C(F)(F)F` (stereo not given), the Potency was inconclusive: 1.26 µM [inhibitor, full curve, poor fit]. For `O=C(Cc1c[nH]c2ccccc12)NCCc1ccc(Cl)cc1`, the Potency was inconclusive: 141 µM [inhibitor, single point]. With `COc1ccc(NS(=O)(=O)c2ccc3[nH]c4c(c3c2)CCCCC4)cc1` the Potency was inconclusive: 28.2 µM [inhibitor, partial curve, poor fit]. With `S=c1[nH]nc(-c2ccco2)n1/N=C/c1cccs1` the Potency was inconclusive: 112 µM [inhibitor, partial curve, poor fit]. With `Cc1ccc(C(=O)N2CCCC(n3cc(-c4nc(C(C)C)no4)nn3)C2)cc1C` (stereo not given) the Potency was inconclusive: 50.1 µM [inhibitor, partial curve]. `COc1ccc(-c2cnc3c(NC(C)=O)cc(-c4ccccc4OC)cn23)cc1OC` was tested, and the Potency was inconclusive: 10 µM [inhibitor, full curve, poor fit]. `S=c1[nH]nc(Cc2ccc(Cl)cc2)o1` was tested, and the Potency was inconclusive: 44.7 µM [inhibitor, single point]. For `O=C1NC(c2ccc3c(c2)OCO3)c2c(-c3ccccc3)n[nH]c21` (stereo not given), the Potency was inconclusive: 44.7 µM [inhibitor, partial curve, poor fit]. For `O=C(c1ccc(Cl)c(Cl)c1)N1CCC(=O)N(C(COCc2ccc(Cl)cc2)Cc2ccccc2)CC1` (stereo not given), the Potency was inconclusive: 56.2 µM [inhibitor, partial curve, poor fit]. With `CN(Cc1ccc(C(C)(C)C)cc1)C(=O)C1CCN(C(=O)c2ccc(C(F)(F)F)cc2)CC1` the “activity change, negative = inhibition” value was inactive: -46.7%. `CCN(CC)N=Nc1[nH]nc2nc(C)cc(C)c12` was tested, and the “activity change, negative = inhibition” value was inactive: -16.7%. For `CC(C)c1ccc2occ(CC(=O)N(Cc3ccc(F)cc3)C3CCS(=O)(=O)C3)c2c1` (stereo not given), the Potency was inconclusive: 158 µM [inhibitor, partial curve, poor fit]. `COc1ccc(CCNC(=O)c2ccc3c(c2)ncn3-c2ccc(C(C)C)cc2)cc1OC` was tested, and the “activity change, negative = inhibition” value was inactive: -13.1%. For `CN1c2cc(C(=O)Nc3ccc(Cl)c(F)c3)ccc2C(=O)N2CCCCC21` (stereo not given), the Potency was inconclusive: 50.1 µM [inhibitor, single point]. With `CCN1C(=O)N[C@@H](c2ccc(Br)cc2)C(C(C)=O)=C1C` the “activity change, negative = inhibition” value was inactive: 5.72%. For `COc1ccccc1/C=C/CN1CCSCC1`, the Potency was inconclusive: 0.355 µM [inhibitor, full curve, poor fit]. For `Cc1ccc([C@H]2N[C@]3(CCCN(Cc4ccc(Cl)cc4)C3=O)[C@H]3C(=O)N(C)C(=O)[C@@H]23)cc1`, the Potency was inconclusive: 79.4 µM [inhibitor, single point]. For `CCN(CC)c1ccc(/C=N/NC(=S)NCc2ccco2)cc1`, the Potency was inconclusive: 39.8 µM [inhibitor, partial curve, poor fit].
